Data set [1] has as its target NFIL3 bZIP (long) (human) (UniProt Q16649). The data set is described as follows: ITC. As to conditions: WB: heat too low to fit; ITC: 20 mM Tris pH 7.5, 150 mM NaCl, 25 °C; recombinant protein; residues 65-161; protein details: His6-SUMO removed by TEV.
In another data set the target is C/EBPζ bZIP (human) (UniProt P35638). The data set is described as follows: EMSA. The conditions noted are these: 6-48 uM protein; EMSA: same buffer, 4 °C, 6% native gel in 0.5x TBE; recombinant protein; residues 88-162; protein details: His6-SUMO removed by TEV; label: 5' FAM. On the technique in general: A gel shift assay detects complexes by their altered migration in electrophoresis.

The chains behind the UniProt entries cited, without tags or fusion partners. Residues count along the entry.
UniProt Q16649, 65-161: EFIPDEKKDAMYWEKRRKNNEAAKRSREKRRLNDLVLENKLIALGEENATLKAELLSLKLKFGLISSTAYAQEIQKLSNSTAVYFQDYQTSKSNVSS
UniProt P35638, 88-162: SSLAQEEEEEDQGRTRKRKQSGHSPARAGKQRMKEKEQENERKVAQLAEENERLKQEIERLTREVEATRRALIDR

For some of these results: A negative result means that nothing was seen under these conditions. For some of these results: At least one verdict was read from the data and is not stated in words by the source. For some of these results: A weaker result is weaker than the reference pair of the same experiment.

Consider four sequences from paper PMC10941009, “Structural basis for specific DNA sequence recognition by the transcription factor NFIL3” (The Journal of Biological Chemistry, 2024).

Take CACCGCGCGGTG (double strand) [ccgCGcgg]: the binding result in data set [1] is recorded as “binds more weakly”.
Consider CACCGTACGGTG (double strand) [ccgtacgg], for which the binding result in data set [1] was “binds more weakly”.
With “GATGATGTAATC (double strand) [FAM-TGATGTAA]”, the binding result with C/EBPζ bZIP (human) is on record as “no binding”.
Still for that read-out and setting: the result for “CATTGCGCAATG (double strand) [FAM-TTGCGCAA]” reads “no binding”.
